# Record: PubChem BioAssay AID1159578 (Peter MacCallum Cancer Centre, 2015)
# Purpose: 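siRNA pools altering how lymphatic endothelial cells close a scratch wound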 (primary screen)
# Cells: human lymphatic endothelial cells
# Reagents: siRNA pool against human genes, 40 nM
# Timing: 48 h after transfection
# Read-out: 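High-content imaging of dye-stained cells in a scratch assay measures filled wound area and nuclei per well; duplicate means given as ratio to mock and robust z-score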
# Direction: migration robust z-score: higher = faster migration into the scratch; nuclei per well: higher = more cells in the well
# Hit rule: 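Pools averaging fewer than 3300 nuclei are never called; remaining pools count as changed when migration robust z lies outside -2 to 2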
# Calls: active = migration changed; inactive = no migration change, or too few cells
# Here is one part, drawn at random, of about 18,000 reagents tested. In the full data, about 1,030 (5.7%) got an active call. 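Inactive calls also include pools with fewer than 3300 nuclei, whose migration was not assessed.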 Raw values vary from plate to plate and are shown uncorrected. Unmarked entries are inactive. Further read-outs or replicates are left out here.
target gene,migration robust z-score,migration class with cell-count check,"nuclei per well, duplicate mean"
DGUOK (GeneID 1716),-0.72,migration z between -2 and 2; enough cells,4683
AXDND1 (GeneID 126859),0.17,migration z between -2 and 2; enough cells,6846
EHF (GeneID 26298),0.94,migration z between -2 and 2; enough cells,5714
MLEC (GeneID 9761),0.22,migration z between -2 and 2; enough cells,6626
ENDOG (GeneID 2021),-0.8,migration z between -2 and 2; enough cells,5598
GAS2L3 (GeneID 283431),2.12 (active),migration z above 2; enough cells,6456
GLRX (GeneID 2745),-0.52,migration z between -2 and 2; enough cells,4728
ABCF2 (GeneID 10061),1.77,migration z between -2 and 2; enough cells,6109
RPAP1 (GeneID 26015),0.07,migration z between -2 and 2; enough cells,5098
SLC17A1 (GeneID 6568),0.62,migration z between -2 and 2; enough cells,5088
RFX6 (GeneID 222546),1.34,migration z between -2 and 2; enough cells,6551
PCDHB14 (GeneID 56122),1.07,migration z between -2 and 2; enough cells,6772
TRPC5 (GeneID 7224),0.21,migration z between -2 and 2; enough cells,5492
ACOT9 (GeneID 23597),2.25 (active),migration z above 2; enough cells,5866
COL11A1 (GeneID 1301),3.17 (active),migration z above 2; enough cells,6727
ZNF17 (GeneID 7565),-0.4,migration z between -2 and 2; enough cells,6944
RBFA (GeneID 79863),0.15,migration z between -2 and 2; enough cells,4231
GBA2 (GeneID 57704),0.47,migration z between -2 and 2; enough cells,5560
DDX3X (GeneID 1654),1.6,migration z between -2 and 2; enough cells,5660
CYP2U1 (GeneID 113612),1.09,migration z between -2 and 2; enough cells,5776
FGF17 (GeneID 8822),-0.16,migration z between -2 and 2; enough cells,5802
GALNT10 (GeneID 55568),-0.18,migration z between -2 and 2; enough cells,5336
PLEK2 (GeneID 26499),-0.26,migration z between -2 and 2; enough cells,7433
FMR1 (GeneID 2332),-1.56,migration z between -2 and 2; enough cells,5357
FPR1 (GeneID 2357),0.39,migration z between -2 and 2; enough cells,7536
SCGB1D1 (GeneID 10648),0.58,migration z between -2 and 2; enough cells,5188
RENBP (GeneID 5973),-0.65,migration z between -2 and 2; enough cells,6616
OR10R2 (GeneID 343406),0.83,migration z between -2 and 2; enough cells,5740
PEAK1 (GeneID 79834),-1.01,migration z between -2 and 2; enough cells,5555
AAAS (GeneID 8086),0.25,migration z between -2 and 2; enough cells,5045

In a second layout: 9 of the entries above.
TRPC5 (GeneID 7224) — migration robust z-score = 0.21; migration class with cell-count check = migration z between -2 and 2; enough cells; nuclei per well, duplicate mean = 5492
ACOT9 (GeneID 23597) — migration robust z-score = 2.25 (active); migration class with cell-count check = migration z above 2; enough cells; nuclei per well, duplicate mean = 5866
COL11A1 (GeneID 1301) — migration robust z-score = 3.17 (active); migration class with cell-count check = migration z above 2; enough cells; nuclei per well, duplicate mean = 6727
ZNF17 (GeneID 7565) — migration robust z-score = -0.4; migration class with cell-count check = migration z between -2 and 2; enough cells; nuclei per well, duplicate mean = 6944
RBFA (GeneID 79863) — migration robust z-score = 0.15; migration class with cell-count check = migration z between -2 and 2; enough cells; nuclei per well, duplicate mean = 4231
GBA2 (GeneID 57704) — migration robust z-score = 0.47; migration class with cell-count check = migration z between -2 and 2; enough cells; nuclei per well, duplicate mean = 5560
DDX3X (GeneID 1654) — migration robust z-score = 1.6; migration class with cell-count check = migration z between -2 and 2; enough cells; nuclei per well, duplicate mean = 5660
CYP2U1 (GeneID 113612) — migration robust z-score = 1.09; migration class with cell-count check = migration z between -2 and 2; enough cells; nuclei per well, duplicate mean = 5776
FGF17 (GeneID 8822) — migration robust z-score = -0.16; migration class with cell-count check = migration z between -2 and 2; enough cells; nuclei per well, duplicate mean = 5802

More entries follow.
target gene,migration robust z-score,migration class with cell-count check,"nuclei per well, duplicate mean"
CHRFAM7A (GeneID 89832),-0.73,migration z between -2 and 2; enough cells,4873
PRRX2 (GeneID 51450),0.57,migration z between -2 and 2; enough cells,6148
CTBP2 (GeneID 1488),-1.66,migration z between -2 and 2; enough cells,6814
TRMT10B (GeneID 158234),-1.34,migration z between -2 and 2; enough cells,5020
MIF4GD (GeneID 57409),-0.82,migration z between -2 and 2; enough cells,6334
ZNF773 (GeneID 374928),1.73,migration z between -2 and 2; enough cells,7318
LOC389834 (GeneID 389834),-0.34,migration z between -2 and 2; enough cells,5270
IFIT3 (GeneID 3437),-2.34 (active),migration z below -2; enough cells,3474
S100A1 (GeneID 6271),1.36,migration z between -2 and 2; enough cells,4592
MELK (GeneID 9833),1.12,migration z between -2 and 2; enough cells,5929
ANKRD16 (GeneID 54522),0,migration z between -2 and 2; enough cells,5818
COL4A2 (GeneID 1284),0.52,migration z between -2 and 2; enough cells,6064
TEX28 (GeneID 1527),-0.03,migration z between -2 and 2; enough cells,5594
LPAR1 (GeneID 1902),0.18,migration z between -2 and 2; enough cells,6869
NPM2 (GeneID 10361),-1.6,migration z between -2 and 2; enough cells,4170
IDNK (GeneID 414328),0.19,migration z between -2 and 2; enough cells,5410
EPX (GeneID 8288),-0.91,migration z between -2 and 2; enough cells,7329
BHLHE22 (GeneID 27319),-0.11,migration z between -2 and 2; enough cells,7236
IGF2R (GeneID 3482),0.26,migration z between -2 and 2; enough cells,6794
UBE2E1 (GeneID 7324),-0.42,migration z between -2 and 2; enough cells,5768
ZNF501 (GeneID 115560),-0.99,migration z between -2 and 2; enough cells,5186
ANKS1A (GeneID 23294),-1.92,migration z between -2 and 2; enough cells,6646
PIK3R2 (GeneID 5296),-0.68,migration z between -2 and 2; enough cells,4010
MCM3AP (GeneID 8888),0.56,migration z between -2 and 2; enough cells,5180
PIDD1 (GeneID 55367),-0.36,migration z between -2 and 2; enough cells,5332
PRB2 (GeneID 653247),-0.58,migration z between -2 and 2; enough cells,6066
IGHMBP2 (GeneID 3508),0.16,migration z between -2 and 2; enough cells,4357
